Values from PubChem BioAssay AID1053208 (Peter MacCallum Cancer Centre, 2014).
Aim: 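Synthetic lethal interactions between gene loss and doxorubicin in osteosarcoma cells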 (primary screen). Cells: mouse osteosarcoma cells, early-passage culture from an engineered mouse model of fibroblastic bone tumour. Knock-down reagent: siRNA pool against mouse genes, 40 nM. Duration: about 120 h (48 h before drug, then 72 h with drug). Conditions: doxorubicin 100 nM for 72 h, roughly 30-40% inhibitory dose. Read-out: 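Luminescent ATP signal taken as viability with or without 100 nM doxorubicin for 72 h; mean of two wells set against non-targeting siRNA and turned into robust z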. Reading the numbers: viability z-score with doxorubicin and doxorubicin viability vs non-targeting: higher = more viable cells under doxorubicin; viability z-score without drug: higher = more viable cells with knock-down alone; z-score of drug to no-drug ratio: higher = less drug sensitisation by knock-down. Rule for the call: 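Called active if knock-down leaves viability unchanged without drug (z within -2 to 2) but lowers it with doxorubicin (z at or under -2)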.
This is an unselected part of about 17,000 reagents. In the full data, 788 (4.7%) are marked active. 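Calls rest on z-score classes alone; an extra cut-off of viability at most 70% of control was not applied to them.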 The numbers tell different reagents against one gene apart.

target gene	pool no.	combined z-score class	viability z-score with doxorubicin	viability z-score without drug	z-score of drug to no-drug ratio	doxorubicin viability vs non-targeting	activity call
Klhl7	1	no change with or without drug	-0.67	1.01	-1.24	0.88	inactive
Ccdc169	1	no change with or without drug	-0.22	-0.17	0	0.92	inactive
Pate4	1	no change with or without drug	-0.45	-1.52	0.79	0.9	inactive
Atg4b	1	high cell count with doxorubicin only	2.59	0.51	2.36	1.17	inactive
Dhcr7	1	no change with or without drug	0	-0.17	0.22	0.94	inactive
Or9s27	1	low cell count with and without drug	-2.25	-2.53	-0.67	0.74	inactive
Anapc2	1	low cell count with doxorubicin only	-2.25	0.17	-2.36	0.74	active
Or12d13	1	high cell count with doxorubicin only	2.36	-0.84	3.37	1.15	inactive
Llph	1	high cell count without drug only	-1.12	2.87	-2.59	0.84	inactive
Shoc2	1	no change with or without drug	0.45	1.52	-0.45	0.98	inactive
Rpl18	1	no change with or without drug	-1.91	1.85	-2.81	0.77	inactive
D1Pas1	1	no change with or without drug	-1.57	1.52	-2.36	0.8	inactive
Slc2a2	1	no change with or without drug	-0.22	0	-0.11	0.92	inactive
Or8c13	1	no change with or without drug	-0.67	0.67	-1.01	0.88	inactive
Prss39	1	no change with or without drug	0.79	0.17	0.79	1.01	inactive
Ppp2r2c	1	no change with or without drug	-1.24	1.01	-1.8	0.83	inactive
Hlf	1	no change with or without drug	-0.45	0.17	-0.45	0.9	inactive
Cib3	1	no change with or without drug	0.22	-0.84	1.01	0.96	inactive
Adgrb2	1	no change with or without drug	-0.45	-0.51	0	0.9	inactive
Gm9725	1	no change with or without drug	0.56	-0.84	1.35	0.99	inactive
Orc2	1	no change with or without drug	0.9	0.84	0.45	1.02	inactive
Gabarapl1	1	no change with or without drug	-1.8	-1.18	-1.01	0.78	inactive
Mrm1	1	high cell count without drug only	0	2.02	-1.12	0.94	inactive
Slc22a17	1	no change with or without drug	-1.12	0	-1.12	0.84	inactive
Pakap	1	no change with or without drug	-0.45	0.17	-0.45	0.9	inactive
Pakap	2	no change with or without drug	-0.67	-0.17	-0.45	0.88	inactive
Pnp	1	no change with or without drug	0.22	1.01	-0.34	0.96	inactive
Ptma	1	no change with or without drug	1.8	1.85	0.67	1.1	inactive
Lce1e	1	high cell count without drug only	0.67	2.19	-0.56	1	inactive
Txndc12	1	no change with or without drug	0.67	-0.17	0.9	1	inactive
Zc2hc1a	1	no change with or without drug	0	1.85	-1.01	0.94	inactive
E230001N04Rik	1	no change with or without drug	0.22	1.35	-0.56	0.96	inactive
Idh3g	1	no change with or without drug	-1.35	-0.51	-1.01	0.82	inactive
Actr3b	1	no change with or without drug	-0.22	0.51	-0.45	0.92	inactive
Or8g55	1	low cell count with doxorubicin only	-2.02	-0.84	-1.57	0.76	active
Gad2	1	no change with or without drug	1.46	0	1.69	1.07	inactive
Zfand2b	1	high cell count without drug only	0.45	2.19	-0.79	0.98	inactive
Osbpl11	1	no change with or without drug	-0.22	-0.84	0.45	0.92	inactive
Htra3	1	low cell count with doxorubicin only	-2.25	-1.18	-1.57	0.74	active
Smc2	1	no change with or without drug	0.34	0.17	0.34	0.97	inactive
Hebp1	1	no change with or without drug	-1.01	-0.17	-0.9	0.85	inactive
Klf4	1	no change with or without drug	0.79	1.01	0.22	1.01	inactive
Fahd1	1	low cell count without drug only	-0.67	-2.36	1.24	0.88	inactive
Pdik1l	1	no change with or without drug	0.45	-0.34	0.79	0.98	inactive
Sdcbp	1	high cell count with doxorubicin only	3.26	1.85	2.02	1.23	inactive
Denr	1	no change with or without drug	0.22	0	0.34	0.96	inactive
Hfe	1	no change with or without drug	-0.79	0	-0.67	0.87	inactive
Prl3d2	1	no change with or without drug	0.22	1.85	-0.79	0.96	inactive
Osbpl8	1	no change with or without drug	-1.8	-1.01	-1.12	0.78	inactive
Gtsf1l	1	high cell count without drug only	-0.79	2.19	-1.91	0.87	inactive

As entered above:
Gm9725, z-score of drug to no-drug ratio = 1.35
For “viability z-score without drug”, Actr3b is entered as 0.51
Value for Pate4 under “activity call”: inactive
